The values below come from article doi:10.1101/2022.05.10.491418.

Results are given in words; binding and its absence hold for the method and conditions named. In cells and extracts the contact can be indirect. Some binding calls cover weakened binding; strength is not graded here. For some assays here: Where a sequence is shown, tags or fusion partners need not be part of it.

The target in experiment [1] is T1, CHS3_Col-0 (clade 1), wild type, HF-tagged (Arabidopsis thaliana), Q9FKN7.
T1 chain: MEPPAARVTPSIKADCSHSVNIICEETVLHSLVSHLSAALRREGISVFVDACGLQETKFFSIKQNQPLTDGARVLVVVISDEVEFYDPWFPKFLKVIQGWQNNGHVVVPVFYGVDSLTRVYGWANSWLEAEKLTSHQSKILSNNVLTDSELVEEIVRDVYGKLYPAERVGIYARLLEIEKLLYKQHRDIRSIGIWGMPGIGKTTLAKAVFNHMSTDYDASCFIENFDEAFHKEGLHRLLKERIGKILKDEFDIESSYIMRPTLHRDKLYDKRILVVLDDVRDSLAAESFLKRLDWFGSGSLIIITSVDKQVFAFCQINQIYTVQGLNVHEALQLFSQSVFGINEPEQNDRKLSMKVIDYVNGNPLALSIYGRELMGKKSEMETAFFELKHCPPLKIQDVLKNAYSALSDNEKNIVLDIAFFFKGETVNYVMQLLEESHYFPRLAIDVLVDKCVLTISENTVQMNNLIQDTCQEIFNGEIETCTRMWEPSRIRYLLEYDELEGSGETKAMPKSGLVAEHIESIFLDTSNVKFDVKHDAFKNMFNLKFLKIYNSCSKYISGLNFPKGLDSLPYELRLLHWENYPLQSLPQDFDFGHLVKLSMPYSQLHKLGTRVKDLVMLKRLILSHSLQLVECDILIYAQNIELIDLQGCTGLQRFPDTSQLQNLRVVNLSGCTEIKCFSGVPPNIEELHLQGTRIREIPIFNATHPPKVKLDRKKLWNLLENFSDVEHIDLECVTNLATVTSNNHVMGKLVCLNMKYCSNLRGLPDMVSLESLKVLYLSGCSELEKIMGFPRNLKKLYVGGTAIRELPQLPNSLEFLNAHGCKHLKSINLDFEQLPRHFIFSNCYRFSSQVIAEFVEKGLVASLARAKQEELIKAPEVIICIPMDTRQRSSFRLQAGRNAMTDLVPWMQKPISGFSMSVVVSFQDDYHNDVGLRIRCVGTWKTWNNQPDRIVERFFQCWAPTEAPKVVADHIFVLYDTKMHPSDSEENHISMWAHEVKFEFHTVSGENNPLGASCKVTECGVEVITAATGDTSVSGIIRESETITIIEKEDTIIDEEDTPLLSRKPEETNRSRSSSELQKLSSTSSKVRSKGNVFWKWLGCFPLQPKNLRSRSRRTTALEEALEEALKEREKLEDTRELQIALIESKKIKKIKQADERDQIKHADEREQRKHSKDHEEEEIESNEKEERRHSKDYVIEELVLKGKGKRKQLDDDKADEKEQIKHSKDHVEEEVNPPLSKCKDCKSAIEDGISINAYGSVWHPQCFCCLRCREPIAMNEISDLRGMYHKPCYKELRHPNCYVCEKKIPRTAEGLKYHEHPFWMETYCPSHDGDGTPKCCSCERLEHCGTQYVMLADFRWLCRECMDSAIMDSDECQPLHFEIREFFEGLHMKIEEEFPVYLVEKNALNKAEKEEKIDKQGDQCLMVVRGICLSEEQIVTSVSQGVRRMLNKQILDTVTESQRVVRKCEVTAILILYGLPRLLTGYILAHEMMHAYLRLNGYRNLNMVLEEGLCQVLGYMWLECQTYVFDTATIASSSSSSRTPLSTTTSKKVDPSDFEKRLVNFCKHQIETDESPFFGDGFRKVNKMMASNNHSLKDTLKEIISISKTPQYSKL
As to the kind of experiment: co-IP. The following applies: remark: other sources report otherwise.

Experiment [2] has as its target CHS3_Col-0 (clade 1), wild type, HF-tagged (Arabidopsis thaliana) (UniProt Q9FKN7). The experiment in a line: co-IP.

B1: BAK1 (BRI1-ASSOCIATED RECEPTOR KINASE), Col-0, Q94F62 26-615 (receptor)
chain: NAEGDALSALKNSLADPNKVLQSWDATLVTPCTWFHVTCNSDNSVTRVDLGNANLSGQLVMQLGQLPNLQYLELYSNNITGTIPEQLGNLTELVSLDLYLNNLSGPIPSTLGRLKKLRFLRLNNNSLSGEIPRSLTAVLTLQVLDLSNNPLTGDIPVNGSFSLFTPISFANTKLTPLPASPPPPISPTPPSPAGSNRITGAIAGGVAAGAALLFAVPAIALAWWRRKKPQDHFFDVPAEEDPEVHLGQLKRFSLRELQVASDNFSNKNILGRGGFGKVYKGRLADGTLVAVKRLKEERTQGGELQFQTEVEMISMAVHRNLLRLRGFCMTPTERLLVYPYMANGSVASCLRERPESQPPLDWPKRQRIALGSARGLAYLHDHCDPKIIHRDVKAANILLDEEFEAVVGDFGLAKLMDYKDTHVTTAVRGTIGHIAPEYLSTGKSSEKTDVFGYGVMLLELITGQRAFDLARLANDDDVMLLDWVKGLLKEKKLEALVDVDLQGNYKDEEVEQLIQVALLCTQSSPMERPKMSEVVRMLEGDGLAERWEEWQKEEMFRQDFNYPTHHPAVSGWIIGDSTSQIENEYPSGPR
As to B1, the binding entry in experiment [1] is given as “binds”.

B2: BKK1 (BAK1-LIKE 1), Col-0 (receptor, UniProt Q9SKG5 34-620)
chain: DALTQLKNSLSSGDPANNVLQSWDATLVTPCTWFHVTCNPENKVTRVDLGNAKLSGKLVPELGQLLNLQYLELYSNNITGEIPEELGDLVELVSLDLYANSISGPIPSSLGKLGKLRFLRLNNNSLSGEIPMTLTSVQLQVLDISNNRLSGDIPVNGSFSLFTPISFANNSLTDLPEPPPTSTSPTPPPPSGGQMTAAIAGGVAAGAALLFAVPAIAFAWWLRRKPQDHFFDVPAEEDPEVHLGQLKRFTLRELLVATDNFSNKNVLGRGGFGKVYKGRLADGNLVAVKRLKEERTKGGELQFQTEVEMISMAVHRNLLRLRGFCMTPTERLLVYPYMANGSVASCLRERPEGNPALDWPKRKHIALGSARGLAYLHDHCDQKIIHRDVKAANILLDEEFEAVVGDFGLAKLMNYNDSHVTTAVRGTIGHIAPEYLSTGKSSEKTDVFGYGVMLLELITGQKAFDLARLANDDDIMLLDWVKEVLKEKKLESLVDAELEGKYVETEVEQLIQMALLCTQSSAMERPKMSEVVRMLEGDGLAERWEEWQKEEMPIHDFNYQAYPHAGTDWLIPYSNSLIENDYPSGPR
In the case of B2, the binding result in experiment [2] is “binds”.
